{"sequences": {"note": "Chains of the proteins cited; added tags and fusions are not shown.", "UniProt P13412": "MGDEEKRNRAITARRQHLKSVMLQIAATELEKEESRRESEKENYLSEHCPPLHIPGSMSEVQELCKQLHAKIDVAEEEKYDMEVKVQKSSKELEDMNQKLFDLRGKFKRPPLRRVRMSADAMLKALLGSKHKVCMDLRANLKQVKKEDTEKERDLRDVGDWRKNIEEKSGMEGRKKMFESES", "UniProt P20801": "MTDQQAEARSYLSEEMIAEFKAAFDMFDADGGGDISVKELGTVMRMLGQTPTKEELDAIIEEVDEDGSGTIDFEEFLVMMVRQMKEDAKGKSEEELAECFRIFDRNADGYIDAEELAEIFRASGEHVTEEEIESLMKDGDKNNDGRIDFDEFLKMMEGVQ", "UniProt Q9QZ47": "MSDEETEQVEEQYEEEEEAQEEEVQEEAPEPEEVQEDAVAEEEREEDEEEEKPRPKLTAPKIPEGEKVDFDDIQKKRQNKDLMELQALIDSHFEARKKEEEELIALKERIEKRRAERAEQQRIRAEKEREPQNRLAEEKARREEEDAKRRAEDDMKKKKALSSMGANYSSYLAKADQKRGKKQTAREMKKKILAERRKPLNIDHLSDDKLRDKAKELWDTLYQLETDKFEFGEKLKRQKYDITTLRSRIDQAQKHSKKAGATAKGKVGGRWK"}, "source": "paper doi:10.1101/2025.05.30.655367", "note": "No constants are given. Whether binding was seen depends on the method and setting. In cells and extracts the contact can be indirect. Some results given as binding are weak or reduced against the parent protein; the word gives no strength. Tags and fused reporters may be left off the sequences shown."}
{"biological_target": "T1, KLHL41-FLAG (UniProt O60662)", "T1 sequence": "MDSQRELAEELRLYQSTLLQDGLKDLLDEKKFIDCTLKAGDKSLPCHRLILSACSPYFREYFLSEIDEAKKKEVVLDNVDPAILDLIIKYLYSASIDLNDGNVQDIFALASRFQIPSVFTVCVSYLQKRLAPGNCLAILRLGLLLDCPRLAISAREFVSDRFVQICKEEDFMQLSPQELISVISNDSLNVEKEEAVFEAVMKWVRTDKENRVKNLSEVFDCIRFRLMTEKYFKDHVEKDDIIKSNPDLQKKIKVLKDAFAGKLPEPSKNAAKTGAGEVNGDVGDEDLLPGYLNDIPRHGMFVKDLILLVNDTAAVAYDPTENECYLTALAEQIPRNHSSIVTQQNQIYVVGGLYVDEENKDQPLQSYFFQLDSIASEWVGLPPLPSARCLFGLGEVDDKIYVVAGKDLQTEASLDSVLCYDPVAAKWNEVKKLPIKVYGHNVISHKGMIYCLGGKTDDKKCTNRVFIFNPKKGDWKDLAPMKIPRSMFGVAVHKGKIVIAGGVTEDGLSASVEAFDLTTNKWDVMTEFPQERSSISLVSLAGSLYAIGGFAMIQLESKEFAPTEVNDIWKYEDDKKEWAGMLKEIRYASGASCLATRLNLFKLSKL", "experiment": "co-IP"}
{"substance": "TNNI2 (from UniProt P13412 1-182)", "binding": "no binding"}
{"substance": "TNNC2 (from UniProt P20801 1-160)", "binding": "no binding"}
{"substance": "TNNT3 (from UniProt Q9QZ47 1-272)", "binding": "binds"}
